Experimental data taken from paper PMC9937529, “Mechanism of activation and biased signaling in complement receptor C5aR1” (Cell Research, 2023).
Results are given in words; binding and its absence hold for the method and conditions named. Binding seen in cells or lysates may run through a third protein. Some results given as binding are weak or reduced against the parent protein; the word gives no strength.

Amino acid sequences for entries named in this document (tags omitted).
UniProt Q9P296: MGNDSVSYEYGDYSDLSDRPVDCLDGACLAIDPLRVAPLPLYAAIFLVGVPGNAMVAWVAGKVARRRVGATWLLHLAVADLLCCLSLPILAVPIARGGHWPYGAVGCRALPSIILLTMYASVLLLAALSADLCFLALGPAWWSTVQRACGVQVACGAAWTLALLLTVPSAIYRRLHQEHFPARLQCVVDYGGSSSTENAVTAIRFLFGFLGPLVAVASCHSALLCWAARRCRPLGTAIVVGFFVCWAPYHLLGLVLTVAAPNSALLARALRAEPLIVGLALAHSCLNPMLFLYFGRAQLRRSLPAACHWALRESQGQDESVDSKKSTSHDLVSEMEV
UniProt P21730: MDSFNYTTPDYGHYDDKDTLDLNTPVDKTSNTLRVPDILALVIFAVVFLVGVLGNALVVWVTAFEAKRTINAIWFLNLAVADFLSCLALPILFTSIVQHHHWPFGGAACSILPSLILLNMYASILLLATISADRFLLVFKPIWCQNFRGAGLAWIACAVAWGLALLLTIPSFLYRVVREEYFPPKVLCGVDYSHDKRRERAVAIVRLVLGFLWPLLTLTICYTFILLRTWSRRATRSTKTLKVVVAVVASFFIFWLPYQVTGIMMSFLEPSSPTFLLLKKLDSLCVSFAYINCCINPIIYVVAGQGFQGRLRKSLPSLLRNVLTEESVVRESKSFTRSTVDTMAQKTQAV
UniProt P32121: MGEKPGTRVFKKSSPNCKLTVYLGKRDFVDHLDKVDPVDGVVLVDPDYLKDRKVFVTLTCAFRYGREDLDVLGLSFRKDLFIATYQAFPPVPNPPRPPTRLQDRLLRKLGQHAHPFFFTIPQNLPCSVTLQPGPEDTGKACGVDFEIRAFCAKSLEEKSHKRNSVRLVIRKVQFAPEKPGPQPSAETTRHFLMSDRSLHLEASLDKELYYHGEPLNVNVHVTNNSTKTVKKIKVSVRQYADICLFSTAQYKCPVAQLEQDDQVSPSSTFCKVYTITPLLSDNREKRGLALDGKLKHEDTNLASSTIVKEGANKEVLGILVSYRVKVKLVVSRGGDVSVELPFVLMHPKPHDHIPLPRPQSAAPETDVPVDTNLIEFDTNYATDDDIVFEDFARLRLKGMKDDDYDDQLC

Assays:
C5aR2-mVenus = C5aR2-mVenus (UniProt Q9P296); assay: FRET or BRET; HEK293 cells transiently transfected with C5aR1-Nluc and mVenus-β-arrestin 2 or C5aR2-mVenus and Nluc-β-arrestin 2; coelenterazine h; agonist with or without antagonist for 10 min; ligand-induced BRET ratio
C5aR1-Nluc (human) = C5aR1-Nluc (human) (UniProt P21730); assay: as above

Substance	binding (C5aR2-mVenus)	binding (C5aR1-Nluc (human))
Nluc-β-arrestin 2 (from UniProt P32121 1-409)	binds	–
mVenus-β-arrestin 2 (from UniProt P32121 1-409)	–	binds
